The text below walks through data of the supplement of paper PMC10849652.

Amino acid sequences for entries named in this document (tags omitted). A change or cut given only in a name is not applied to a line headed by its entry.
UniProt Q15053: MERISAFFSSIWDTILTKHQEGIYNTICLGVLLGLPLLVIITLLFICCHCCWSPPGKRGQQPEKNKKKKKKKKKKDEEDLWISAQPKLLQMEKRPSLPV
UniProt O15550, whole entry, looked up: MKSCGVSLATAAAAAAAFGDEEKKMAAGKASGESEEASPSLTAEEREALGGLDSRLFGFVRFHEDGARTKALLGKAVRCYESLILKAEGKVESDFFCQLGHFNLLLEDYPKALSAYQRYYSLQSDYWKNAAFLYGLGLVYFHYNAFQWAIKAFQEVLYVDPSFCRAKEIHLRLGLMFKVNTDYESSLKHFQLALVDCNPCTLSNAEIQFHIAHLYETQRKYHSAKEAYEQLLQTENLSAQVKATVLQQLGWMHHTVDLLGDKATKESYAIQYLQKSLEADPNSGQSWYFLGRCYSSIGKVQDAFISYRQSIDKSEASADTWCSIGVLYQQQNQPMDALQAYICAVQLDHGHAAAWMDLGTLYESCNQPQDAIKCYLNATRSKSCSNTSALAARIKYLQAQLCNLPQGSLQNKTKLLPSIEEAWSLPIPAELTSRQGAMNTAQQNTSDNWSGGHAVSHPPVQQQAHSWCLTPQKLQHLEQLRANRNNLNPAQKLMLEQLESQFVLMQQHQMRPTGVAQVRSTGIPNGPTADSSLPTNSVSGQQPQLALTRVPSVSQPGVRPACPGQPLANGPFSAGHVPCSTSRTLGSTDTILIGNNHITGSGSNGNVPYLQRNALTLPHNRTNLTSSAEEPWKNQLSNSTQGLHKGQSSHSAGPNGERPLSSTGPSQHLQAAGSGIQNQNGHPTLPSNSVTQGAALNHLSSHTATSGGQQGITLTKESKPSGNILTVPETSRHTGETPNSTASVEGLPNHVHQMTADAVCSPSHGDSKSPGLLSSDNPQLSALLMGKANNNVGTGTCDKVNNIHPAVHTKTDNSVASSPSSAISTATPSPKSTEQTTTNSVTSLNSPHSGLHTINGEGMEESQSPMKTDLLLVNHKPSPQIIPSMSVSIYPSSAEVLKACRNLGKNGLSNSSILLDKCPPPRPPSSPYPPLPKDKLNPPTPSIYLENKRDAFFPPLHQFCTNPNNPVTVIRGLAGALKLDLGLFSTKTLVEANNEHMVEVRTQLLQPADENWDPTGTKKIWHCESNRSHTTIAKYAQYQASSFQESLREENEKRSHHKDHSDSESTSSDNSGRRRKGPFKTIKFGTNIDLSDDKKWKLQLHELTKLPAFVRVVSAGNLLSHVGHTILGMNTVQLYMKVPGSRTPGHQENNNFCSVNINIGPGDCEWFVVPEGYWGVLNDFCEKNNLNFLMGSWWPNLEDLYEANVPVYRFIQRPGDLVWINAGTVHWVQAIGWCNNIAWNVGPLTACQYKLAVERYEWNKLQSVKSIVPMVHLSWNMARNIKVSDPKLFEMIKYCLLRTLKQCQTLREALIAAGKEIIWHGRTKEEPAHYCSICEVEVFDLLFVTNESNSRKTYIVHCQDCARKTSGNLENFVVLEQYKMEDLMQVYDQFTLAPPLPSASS
UniProt Q8N4N3: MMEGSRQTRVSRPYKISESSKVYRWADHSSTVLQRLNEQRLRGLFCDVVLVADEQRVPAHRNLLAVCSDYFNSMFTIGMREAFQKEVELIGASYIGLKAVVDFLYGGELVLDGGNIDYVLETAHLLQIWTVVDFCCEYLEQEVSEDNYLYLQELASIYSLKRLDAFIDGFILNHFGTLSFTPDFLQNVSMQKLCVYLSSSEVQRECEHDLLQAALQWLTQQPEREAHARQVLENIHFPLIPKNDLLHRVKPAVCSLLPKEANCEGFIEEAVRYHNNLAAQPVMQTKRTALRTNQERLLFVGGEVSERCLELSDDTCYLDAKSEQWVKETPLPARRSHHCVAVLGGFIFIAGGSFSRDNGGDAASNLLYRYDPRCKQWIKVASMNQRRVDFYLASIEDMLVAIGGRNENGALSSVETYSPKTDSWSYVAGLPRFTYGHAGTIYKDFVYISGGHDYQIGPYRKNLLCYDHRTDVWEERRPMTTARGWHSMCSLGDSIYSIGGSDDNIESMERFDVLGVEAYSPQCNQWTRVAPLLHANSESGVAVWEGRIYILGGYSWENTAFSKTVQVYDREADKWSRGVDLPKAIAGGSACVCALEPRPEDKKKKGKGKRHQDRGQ
UniProt O94854: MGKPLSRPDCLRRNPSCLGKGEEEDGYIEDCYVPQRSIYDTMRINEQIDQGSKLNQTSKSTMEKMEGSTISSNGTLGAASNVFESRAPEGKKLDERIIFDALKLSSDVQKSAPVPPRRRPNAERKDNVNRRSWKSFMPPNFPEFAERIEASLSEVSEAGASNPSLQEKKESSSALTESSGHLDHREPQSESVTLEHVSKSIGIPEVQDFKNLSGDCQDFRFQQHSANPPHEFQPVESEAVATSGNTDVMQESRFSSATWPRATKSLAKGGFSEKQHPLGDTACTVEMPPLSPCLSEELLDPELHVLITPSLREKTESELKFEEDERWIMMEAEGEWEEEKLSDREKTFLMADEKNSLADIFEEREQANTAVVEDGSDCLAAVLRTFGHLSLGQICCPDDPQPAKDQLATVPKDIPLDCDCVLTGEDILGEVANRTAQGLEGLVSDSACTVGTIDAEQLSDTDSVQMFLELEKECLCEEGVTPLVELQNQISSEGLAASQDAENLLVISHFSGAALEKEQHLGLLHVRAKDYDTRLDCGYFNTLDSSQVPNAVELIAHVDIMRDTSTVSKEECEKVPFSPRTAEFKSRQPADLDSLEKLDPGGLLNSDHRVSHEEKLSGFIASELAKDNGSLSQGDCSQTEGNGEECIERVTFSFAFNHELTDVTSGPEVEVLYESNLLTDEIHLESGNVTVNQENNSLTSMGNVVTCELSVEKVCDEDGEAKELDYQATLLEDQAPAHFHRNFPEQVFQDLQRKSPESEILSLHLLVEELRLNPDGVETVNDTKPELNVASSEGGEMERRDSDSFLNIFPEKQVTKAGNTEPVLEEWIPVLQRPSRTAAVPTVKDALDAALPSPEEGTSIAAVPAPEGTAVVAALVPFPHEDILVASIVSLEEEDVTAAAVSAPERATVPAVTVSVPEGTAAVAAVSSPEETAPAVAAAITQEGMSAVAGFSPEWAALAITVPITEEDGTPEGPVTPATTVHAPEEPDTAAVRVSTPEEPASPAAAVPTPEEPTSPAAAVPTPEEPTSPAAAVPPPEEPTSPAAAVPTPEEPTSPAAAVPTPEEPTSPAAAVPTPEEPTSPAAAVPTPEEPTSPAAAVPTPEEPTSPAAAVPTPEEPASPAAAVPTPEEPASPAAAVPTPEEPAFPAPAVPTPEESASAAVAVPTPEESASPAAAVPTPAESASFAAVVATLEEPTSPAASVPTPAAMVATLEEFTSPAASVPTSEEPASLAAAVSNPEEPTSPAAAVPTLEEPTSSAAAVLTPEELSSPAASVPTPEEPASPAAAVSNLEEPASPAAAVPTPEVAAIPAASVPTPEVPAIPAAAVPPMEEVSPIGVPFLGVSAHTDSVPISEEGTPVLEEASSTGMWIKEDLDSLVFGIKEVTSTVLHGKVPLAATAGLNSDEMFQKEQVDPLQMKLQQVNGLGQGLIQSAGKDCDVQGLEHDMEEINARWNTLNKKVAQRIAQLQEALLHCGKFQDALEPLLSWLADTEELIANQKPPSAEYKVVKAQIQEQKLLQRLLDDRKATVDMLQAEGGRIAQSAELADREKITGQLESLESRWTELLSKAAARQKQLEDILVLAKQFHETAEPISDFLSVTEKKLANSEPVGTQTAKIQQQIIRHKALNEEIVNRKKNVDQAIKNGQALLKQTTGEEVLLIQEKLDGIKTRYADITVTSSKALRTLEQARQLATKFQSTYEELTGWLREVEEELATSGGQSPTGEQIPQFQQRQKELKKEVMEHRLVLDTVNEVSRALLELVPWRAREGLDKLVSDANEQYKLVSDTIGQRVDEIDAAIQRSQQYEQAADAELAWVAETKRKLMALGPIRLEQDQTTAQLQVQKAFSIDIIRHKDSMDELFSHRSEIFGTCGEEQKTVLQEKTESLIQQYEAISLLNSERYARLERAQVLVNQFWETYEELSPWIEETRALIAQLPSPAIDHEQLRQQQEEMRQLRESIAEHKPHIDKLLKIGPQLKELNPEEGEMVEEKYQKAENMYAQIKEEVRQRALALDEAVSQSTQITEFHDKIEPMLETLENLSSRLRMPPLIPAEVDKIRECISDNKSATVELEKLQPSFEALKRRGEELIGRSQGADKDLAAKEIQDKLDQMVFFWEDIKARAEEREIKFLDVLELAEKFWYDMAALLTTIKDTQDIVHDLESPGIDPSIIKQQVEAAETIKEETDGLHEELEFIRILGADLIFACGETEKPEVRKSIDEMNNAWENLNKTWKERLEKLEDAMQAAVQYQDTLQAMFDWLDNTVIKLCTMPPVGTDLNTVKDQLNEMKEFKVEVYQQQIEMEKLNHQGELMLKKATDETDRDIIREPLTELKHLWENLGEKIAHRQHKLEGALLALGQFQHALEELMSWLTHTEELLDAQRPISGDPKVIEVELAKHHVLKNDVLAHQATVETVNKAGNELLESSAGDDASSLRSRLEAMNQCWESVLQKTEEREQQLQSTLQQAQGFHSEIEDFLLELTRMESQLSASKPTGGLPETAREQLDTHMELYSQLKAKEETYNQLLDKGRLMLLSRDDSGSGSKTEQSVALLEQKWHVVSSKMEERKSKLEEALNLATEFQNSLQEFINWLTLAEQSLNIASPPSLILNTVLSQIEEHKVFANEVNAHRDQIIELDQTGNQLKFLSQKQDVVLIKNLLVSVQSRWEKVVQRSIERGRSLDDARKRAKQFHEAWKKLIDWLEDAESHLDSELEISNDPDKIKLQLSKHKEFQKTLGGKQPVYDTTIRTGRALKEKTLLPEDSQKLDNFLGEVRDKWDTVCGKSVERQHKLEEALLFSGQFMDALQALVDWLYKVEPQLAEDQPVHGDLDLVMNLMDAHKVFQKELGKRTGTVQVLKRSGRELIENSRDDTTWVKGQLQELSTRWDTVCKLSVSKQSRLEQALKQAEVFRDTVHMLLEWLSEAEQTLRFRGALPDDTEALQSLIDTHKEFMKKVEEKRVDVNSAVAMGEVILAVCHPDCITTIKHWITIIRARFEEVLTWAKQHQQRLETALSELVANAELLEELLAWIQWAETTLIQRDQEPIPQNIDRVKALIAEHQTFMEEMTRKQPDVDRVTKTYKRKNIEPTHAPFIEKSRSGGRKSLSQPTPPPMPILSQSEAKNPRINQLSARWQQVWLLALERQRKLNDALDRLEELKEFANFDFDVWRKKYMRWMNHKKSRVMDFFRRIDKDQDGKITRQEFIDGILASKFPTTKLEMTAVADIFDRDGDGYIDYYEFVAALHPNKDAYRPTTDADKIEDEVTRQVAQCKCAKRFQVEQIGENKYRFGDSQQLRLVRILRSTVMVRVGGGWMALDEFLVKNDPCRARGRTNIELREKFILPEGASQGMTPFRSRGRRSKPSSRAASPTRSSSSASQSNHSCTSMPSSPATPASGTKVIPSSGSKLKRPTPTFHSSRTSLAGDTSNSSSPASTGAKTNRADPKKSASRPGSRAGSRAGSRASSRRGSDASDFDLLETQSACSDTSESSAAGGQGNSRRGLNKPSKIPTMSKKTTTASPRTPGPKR
UniProt Q6PID8: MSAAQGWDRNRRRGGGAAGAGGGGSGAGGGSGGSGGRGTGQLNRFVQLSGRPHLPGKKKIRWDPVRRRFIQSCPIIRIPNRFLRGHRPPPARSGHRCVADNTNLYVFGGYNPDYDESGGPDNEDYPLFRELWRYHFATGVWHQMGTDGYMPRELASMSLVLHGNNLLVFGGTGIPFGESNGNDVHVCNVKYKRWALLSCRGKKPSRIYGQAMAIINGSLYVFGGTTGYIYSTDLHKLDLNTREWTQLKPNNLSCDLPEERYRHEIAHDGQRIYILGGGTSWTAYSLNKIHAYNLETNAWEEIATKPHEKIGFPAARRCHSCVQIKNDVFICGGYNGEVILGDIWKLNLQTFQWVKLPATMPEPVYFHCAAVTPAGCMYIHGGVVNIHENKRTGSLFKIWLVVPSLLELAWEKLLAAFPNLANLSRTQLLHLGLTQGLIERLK
UniProt Q9P2K6: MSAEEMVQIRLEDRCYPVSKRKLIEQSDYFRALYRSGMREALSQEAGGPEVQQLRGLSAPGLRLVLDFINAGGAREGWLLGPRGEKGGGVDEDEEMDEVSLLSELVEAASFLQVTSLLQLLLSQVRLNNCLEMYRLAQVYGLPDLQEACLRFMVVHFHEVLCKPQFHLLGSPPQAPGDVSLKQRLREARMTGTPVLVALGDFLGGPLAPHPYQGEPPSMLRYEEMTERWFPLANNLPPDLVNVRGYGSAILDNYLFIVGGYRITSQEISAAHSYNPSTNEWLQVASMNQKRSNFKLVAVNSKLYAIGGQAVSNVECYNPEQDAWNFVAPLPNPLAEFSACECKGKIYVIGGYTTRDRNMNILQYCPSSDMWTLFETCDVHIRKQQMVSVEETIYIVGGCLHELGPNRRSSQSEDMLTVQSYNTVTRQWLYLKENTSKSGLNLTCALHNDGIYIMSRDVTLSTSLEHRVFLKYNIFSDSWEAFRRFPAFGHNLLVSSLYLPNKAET

This is one part of the list.

Compound in one assay: COc1cc(C(=O)O)ccc1NC(=O)[C@@H]1N[C@@H](CC(C)(C)C)[C@](C#N)(c2ccc(Cl)cc2F)[C@H]1c1cccc(Cl)c1F [idasanutlin]
Nature of the assay: log2 fold change, soluble protein after heating vs DMSO (PISA); higher = thermal stabilisation; K562 cells, 10 uM, 30 min; active = over 0.2 and 3.5 SD of the protein, either way, in both replicates (recomputed). In a few lines:
(§1)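 K562 cells at 2×10^6 cells/mL were treated with 10 μM compound for 30 min. Aliquots were heated for 3 min across 48°C-58°C, pooled, and extracted in PBS with 0.5% NP-40 at 4°C; soluble protein was the supernatant after 21,000xg for 90 min. Soluble protein was quantified by TMTpro 16plex LC-MS/MS with channel sums equalised, and reported as log2 fold change in thermal stability against DMSO controls, with values from duplicates.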
With KLHL20 (UniProt Q9Y2M5), the log2 fold change is inactive: 0.119.
KIAA0040 (UniProt Q15053): the log2 fold change was inactive: 0.101.
With KIF20A (UniProt O95235), the log2 fold change was inactive: 0.09.
Regarding KLC1 isoform 3 (UniProt Q07866), the log2 fold change was inactive: -0.044.
On the same count and under the same terms, the result for KIFC1 (UniProt Q9BW19) reads inactive: 0.235; that for KDM6A (UniProt O15550), inactive: 0.093.
JOSD1 (UniProt Q15040): the log2 fold change is inactive: -0.062.
As to KAT6B (UniProt Q8WYB5), the log2 fold change is inactive: 0.07.
As for KIF16B isoform 2 (UniProt Q96L93), the log2 fold change is inactive: 0.138.

Compound in another assay: COc1cc(Nc2ncc3c(n2)-c2ccc(Cl)cc2C(c2c(F)cccc2OC)=NC3)ccc1C(=O)O [alisertib]
The assay is described as above. An outline of the steps:
as §1
For KLHL20 (UniProt Q9Y2M5), the log2 fold change is inactive: -0.038.
Regarding KIAA0040 (UniProt Q15053), the log2 fold change is inactive: -0.024.
Regarding JCHAIN (UniProt P01591), the log2 fold change was inactive: 0.436.
Regarding KIFC1 (UniProt Q9BW19), the log2 fold change is inactive: -0.027.
For the target KIF1B isoform 3 (UniProt O60333), the log2 fold change is inactive: 0.251.
As for KLHL36 (UniProt Q8N4N3), the log2 fold change was inactive: -0.036.
For KAT6B (UniProt Q8WYB5), the log2 fold change is inactive: -0.05.
On the same count and under the same terms, next, KCTD7 (UniProt Q96MP8): inactive: -0.291.
KRT10, A0A1B0GVI3: the log2 fold change was inactive: 1.9.

Compound in a further assay: COc1cc2nc(-c3cc(F)ccc3O)nc(N[C@@H]3CNC[C@H]3C(C)(C)O)c2cc1OC
The description is as above. An outline of the steps: as §1
Turning to KIAA0754 (UniProt O94854), the log2 fold change is inactive: 0.144.
Same read-out and setting: the result for KLHDC10 (UniProt Q6PID8) reads inactive: 0.116; that for KLHL20 (UniProt Q9Y2M5), inactive: 0.007; that for KLHL42 (UniProt Q9P2K6), inactive: 0.055.
KDM6A (UniProt O15550): the log2 fold change is inactive: 0.169.
Still for that read-out and setting: the result for KAT6B (UniProt Q8WYB5) reads inactive: -0.04.
On the same count and under the same terms, next, KCTD7 (UniProt Q96MP8): inactive: -0.008.

Compound in a further assay: COc1cc2ncnc(Nc3ccc(F)c(Cl)c3)c2cc1OCCCN1CCOCC1 [gefitinib]
The assay is described as above. In a few lines: as §1
Turning to KALRN (UniProt O60229), the log2 fold change was inactive: -0.049.
For KLHL20 (UniProt Q9Y2M5), the log2 fold change is inactive: 0.068.
Take KIAA0040 (UniProt Q15053): the log2 fold change was inactive: -0.003.
The same measure, in the same setting: the result for JCHAIN (UniProt P01591) reads inactive: 0.407; that for KLHL36 (UniProt Q8N4N3), inactive: 0.333; that for KAT6B (UniProt Q8WYB5), inactive: -0.025.
KLHDC2 (UniProt Q9Y2U9): the log2 fold change was inactive: 0.057.
The same measure, in the same setting: next, KCTD7 (UniProt Q96MP8): inactive: -0.271; KIF21B (UniProt O75037): inactive: -0.066.
Same read-out and setting: next, JMJD7 (UniProt P0C870): inactive: 0.027.
Regarding KRT10, A0A1B0GVI3, the log2 fold change is inactive: 0.029.

Compound in another assay: COc1cccc2cc(-c3nc([C@H]4CC[C@H](C(=O)O)CC4)n4ncnc(N)c34)[nH]c12
The assay is described as above. An outline of the steps:
as §1
Turning to KLHL20 (UniProt Q9Y2M5), the log2 fold change is inactive: 0.063.
KIAA0040 (UniProt Q15053): the log2 fold change is inactive: 0.075.
With JCHAIN (UniProt P01591), the log2 fold change was inactive: -0.199.
Same read-out and setting: next, KIFC1 (UniProt Q9BW19): inactive: -0.317.
Still for that read-out and setting: next, KIF1B isoform 3 (UniProt O60333): inactive: -0.037.
With KLHL36 (UniProt Q8N4N3), the log2 fold change was inactive: 0.036.
As for KAT6B (UniProt Q8WYB5), the log2 fold change is inactive: -0.133.
For KCTD7 (UniProt Q96MP8), the log2 fold change was inactive: 0.052.
The same measure, in the same setting: next, KRT10, A0A1B0GVI3: inactive: -0.079.

Compound in another assay: CS(=O)(=O)CCNCc1ccc(-c2ccc3ncnc(Nc4ccc(OCc5cccc(F)c5)c(Cl)c4)c3c2)o1 [lapatinib]
The description is as above. In a few lines: as §1
As to KIAA0754 (UniProt O94854), the log2 fold change was inactive: 0.2.
For KLHDC10 (UniProt Q6PID8), the log2 fold change was inactive: 0.108.
On to KLHL20 (UniProt Q9Y2M5), for which the log2 fold change was inactive: 0.026.
The same measure, in the same setting: next, KLHL42 (UniProt Q9P2K6): inactive: 0.007.
On the same count and under the same terms, the result for KDM6A (UniProt O15550) reads inactive: 0.034; that for KAT6B (UniProt Q8WYB5), inactive: -0.021; that for KCTD7 (UniProt Q96MP8), inactive: 0.096.

Compound in another assay: CS(=O)(=O)N1CCN(Cc2cc3nc(-c4cccc5[nH]ncc45)nc(N4CCOCC4)c3s2)CC1 [pictilisib]
Described as above. In a few lines: as §1
For the target ITSN2 (UniProt Q9NZM3), the log2 fold change was inactive: 0.032.
As to KIN (UniProt O60870), the log2 fold change is inactive: 0.003.
Regarding KDM3A (UniProt Q9Y4C1), the log2 fold change was inactive: -0.02.
Consider KLHDC10 (UniProt Q6PID8), for which the log2 fold change was inactive: -0.034.
Same read-out and setting: next, KLHL20 (UniProt Q9Y2M5): inactive: -0.025; KIFC1 (UniProt Q9BW19): inactive: 0.121.
For the target KSR2 (UniProt Q6VAB6), the log2 fold change is inactive: 0.185.
Same read-out and setting: the result for KIF20B isoform 2 (UniProt Q96Q89) reads inactive: 0.007.
KAT6B (UniProt Q8WYB5): the log2 fold change was inactive: 0.052.
On to KMT5A (UniProt Q9NQR1), for which the log2 fold change was inactive: 0.368.
On to KCTD7 (UniProt Q96MP8), for which the log2 fold change was inactive: 0.192.
Same read-out and setting: the result for KIF4A (UniProt O95239) reads inactive: -0.013.
As to KRT10, A0A1B0GVI3, the log2 fold change is inactive: 0.002.

Compound in another assay: CS(=O)(=O)c1ccc(-c2cnc(N)c(C(=O)Nc3ccccc3)n2)cc1
Described as above. In a few lines:
as §1
For the target KIN (UniProt O60870), the log2 fold change is inactive: 0.019.
Consider KDM2B (UniProt Q8NHM5), for which the log2 fold change is inactive: 0.06.
With KSR2 (UniProt Q6VAB6), the log2 fold change was inactive: 0.177.
On to KMT5A (UniProt Q9NQR1), for which the log2 fold change was inactive: 0.018.
Same read-out and setting: the result for JMJD7 (UniProt P0C870) reads inactive: -0.15.

Compound in another assay: C[C@@H]1COCCN1C2=NC(=NC(=C2)C3(CC3)S(=O)(=O)C)C4=C5C=CNC5=CC=C4
The assay is described as above. In a few lines:
as §1
For KIAA0754 (UniProt O94854), the log2 fold change was inactive: 0.078.
Turning to KALRN (UniProt O60229), the log2 fold change is inactive: 0.217.
Turning to KMT2E (UniProt Q8IZD2), the log2 fold change was inactive: 0.179.
In the case of KIF20A (UniProt O95235), the log2 fold change was inactive: 0.104.
Turning to KLHL42 (UniProt Q9P2K6), the log2 fold change was inactive: 0.005.
As for KHSRP (UniProt M0R3J3), the log2 fold change was inactive: 0.33.
Still for that read-out and setting: next, KIFC1 (UniProt Q9BW19): inactive: 0.
Same read-out and setting: the result for KSR2 (UniProt Q6VAB6) reads inactive: -0.041; that for KDM6A (UniProt O15550), inactive: 0.269; that for JOSD1 (UniProt Q15040), inactive: 0.079.
On the same count and under the same terms, the result for KLHL36 (UniProt Q8N4N3) reads inactive: 0.245; that for KIF21B (UniProt O75037), inactive: 0.
For the target JMJD7 (UniProt P0C870), the log2 fold change is inactive: 0.061.
In the case of KLHL17 (UniProt Q6TDP4), the log2 fold change is inactive: -0.021.
